The results in this text go back to patent US20180311371A1.

Results are given in words; binding and its absence hold for the method and conditions named. Some results given as binding are weak or reduced against the parent protein; the word gives no strength.

The assay deals with cynomolgus TPBG extracellular domain, huIgG1-Fc-His6 (cynomolgus). As to the kind of experiment: ELISA; Fc-TPBG coated; mAb titrated from 1 µg/ml. On the technique in general: ELISA stands for enzyme-linked immunosorbent assay.

B1: anti-TPBG antibody 091 (mAb) (antibody, V domains shown)
VH: EVHLLESGGGLVHPGGSLRLSCAASGFTFRSDAMHWVRQAPGKGLEWVSGVSGSGGSPYYADSVKGRFTISRDDSKTTLYLQMNSLRAEDTAVYYCATGGSIAGSYYYYPMDVWGQGTTVTVSS
VL: DIQMTQSPSSLSASVGDRVTITCQASQDISNYLNWYQQKPGKAPKLLIYAASTLQIGVPSRFSGSGSGTDFTFTISSLQPEDFATYYCQQANSFPLTFGGGTKVEIK
B1: the binding entry is “binds”.

B2: anti-TPBG antibody 051 (mAb) (antibody, V domains shown)
VH: EVQLLESGGGLLQPGGSLRLSCAASGFTFSIYWMTWVRQAPGKGLEWVSAISGSGGSTYYADSVKGRFTISRDNSKNTLYLQMNSLRAEDTAVYYCAKDYYSNVYWGQGTLVTVSS
VL: DIQMTQSPSSVSASVGDRVTITCRASQGIYSWLAWYQQKPGKAPKLLIYAASSLQSGVPSRFSGSGSGTDFTLTISSLQPEDFATYYCQQSDSPPYTFGQGTKLEIK
On to B2, for which the binding entry was “binds”.
